According to PubChem BioAssay AID624291 (National Center for Advancing Translational Sciences (NCATS), 2012):
The campaign covered roughly 350,000 compounds. About 220 (0.063%) were called active. The shares of active, inactive and inconclusive entries below differ from those in the screen. Calls come from the whole dose curve; as a rule, active = well fitted activation curve with a large enough effect; inconclusive = small, poorly fitted or top-dose-only effect; inactive = no such curve, though single readings can be large or run the other way. A potency beside an inconclusive call is a rough fit, not a confirmed value.

Assay: qHTS for Activators of Integrin-Mediated Alleviation for Muscular Dystrophy; note: nearly all actives have a fitted effect of over 60% in size;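 for activation: 100% = response of the positive control SU9516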
Details: alpha7betagal myoblasts, beta-gal FDG fluorescence, 48 h; activation: at 38.3 µM (top of the series)
In short: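 Alpha7betagal+/- myoblasts (passage 13) were plated 16-24 hr, then exposed to compounds (1:260 dilution of DMSO stock) for 48 hours at 37C. After MPER lysis, β-galactosidase reporter activity was read as FDG fluorescence (ex 480/em 540) after 30 minutes.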
Potency is the fitted concentration of half-maximal effect.

| Structure (SMILES) | Potency | activation |
| --- | --- | --- |
| Cc1nnc(NC(=O)c2oc3ccccc3c2C)s1 | inconclusive: 2.51 µM [activator, full curve, poor fit] |  |
| CN(c1ccc(C(=O)NC2CCCC2)cc1)S(=O)(=O)c1ccccc1 | inconclusive: 3.55 µM [activator, single point] |  |
| Cc1ccc(S(=O)(=O)N2CCC(Oc3ccc(-n4cnnn4)cc3)CC2)cc1 | inconclusive: 10 µM [activator, partial curve, poor fit] |  |
| CC1(C)CC(=O)c2c(S(C)(=O)=O)sc(Br)c2C1 |  | inactive: -38% |
| CC(=O)C1CCC2C3CCC4CC(=O)CCC4(C)C3C=CC12C (centres undefined) | inconclusive: 3.98 µM [activator, single point] |  |
| Cc1ccc(C(=O)C2=C(O)C(=O)N(Cc3cccnc3)C2c2ccc(Cl)cc2)o1 (centres undefined) | inconclusive: 3.55 µM [activator, partial curve, poor fit] |  |
| CC(=O)Nc1ccc(C(=O)COC(=O)C2CC2C)c(F)c1 (centres undefined) | inconclusive: 5.01 µM [activator, partial curve, poor fit] |  |
| C=CCn1c[n+](CC(=O)c2ccc(Br)s2)c2ccccc21 |  | inactive: 1.94% |
| O=C(NCCc1nc2ccccc2[nH]1)c1ccc([N+](=O)[O-])cc1 |  | inconclusive: -40.5% [activator] |
| COc1ccc(C2c3ccc4ccccc4c3Oc3ncn(CCCN(C)C)c(=N)c32)cc1 (centres undefined) |  | inactive: -71.8% |
| COc1cc(CN(C(=O)c2cc3ccccc3oc2=O)C2CCS(=O)(=O)C2)cc(OC)c1OC (centres undefined) | inconclusive: 5.01 µM [activator, single point] |  |
| C=CCn1c(=O)c2c(nc3n2CCCN3CCc2ccc(OC)c(OC)c2)n(C)c1=O | inconclusive: 4.47 µM [activator, single point] |  |
| O=C(Nc1nnc(C2CC2)s1)c1cc2ccccc2o1 | inconclusive: 5.01 µM [activator, single point] |  |
| N/C(Cc1cccs1)=N\OC(=O)COc1ccc(Br)cc1Cl |  | inactive: 19.9% |
| COc1cc(/C=N/n2c(=S)[nH]nc(C)c2=O)cc([N+](=O)[O-])c1O | inconclusive: 12.6 µM [activator, single point] |  |
| CCCCCC(O)(c1ccc(OC)cc1)C(CN1CCOCC1)c1ccccc1 (centres undefined) |  | inconclusive: -55.9% [activator] |
| Cc1cc2c(cc1C)N(CC(=O)N1CCCC1)C(=O)CC(c1ccccc1)=N2 | inconclusive: 28.2 µM [activator, single point] |  |
| Cc1cc(Nc2ccccc2Cl)nc(-c2ccccc2O)n1 | inconclusive: 2.82 µM [activator, single point] |  |
| CCOC(=O)N1CCN(CC(O)COC2CC(C)CCC2C(C)C)CC1 (centres undefined) |  | inconclusive: -8.49% [activator] |
| CN(C)CCNC(=O)c1sc2nc(-c3ccccc3)cc(C(F)(F)F)c2c1N |  | inactive: -2.73% |
| NC(=O)c1ccc(-c2ncc(-c3ccccc3)o2)cc1 | inconclusive: 3.16 µM [activator, partial curve, poor fit] |  |
| CCOC(=O)C1(Cc2cccc(OC)c2)CCN(Cc2cccc3cnccc23)CC1 | inconclusive: 28.2 µM [activator, single point] |  |

| Structure (SMILES) | Potency | activation |
| --- | --- | --- |
| Cn1c(SCC(=O)Nc2ccc(N3CCOCC3)cc2)nnc1C1CC1 | inconclusive: 5.01 µM [activator, single point] |  |
| CCn1c(-c2cccn(Cc3ccccc3)c2=O)n[nH]c1=S | inconclusive: 10 µM [activator, single point] |  |
| O=C(Nc1ccc(Cl)cc1)C1CCCN1C(=O)NCc1ccccc1 (centres undefined) | inconclusive: 12.6 µM [activator, single point] |  |
| Cc1cccc(OCC(=O)NCC(=O)N/N=C/c2ccc(O)cc2O)c1 | inconclusive: 3.55 µM [activator, single point] |  |
| COc1ccc2oc(=N)c(C(=O)Nc3ccc(F)cc3)cc2c1 | inconclusive: 2.82 µM [activator, single point] |  |
| Fc1cccc(CCN2C(=S)NC[C@@H]2Cc2ccccc2)c1 |  | inactive: 0% |
| Cc1nc2ccn(Cc3ccccc3)c(=O)c2cc1C(=O)N1CCN(c2ccc(F)cc2)CC1 | inconclusive: 2.51 µM [activator, single point] |  |
| CC1CCCC(NC(=O)Cn2cc([N+](=O)[O-])ccc2=O)C1C (centres undefined) | inconclusive: 5.01 µM [activator, single point] |  |
| COc1ccc(S(=O)(=O)Nc2cc3c4c(c2)CC(=O)N4CCC3)cc1OC |  | inactive: -0.0552% |
| Cc1ccccc1C(=O)Nc1ccnn1C1CCN(Cc2cnn(C)c2)CC1 | inconclusive: 28.2 µM [activator, single point] |  |
| N#C/C(=C(/O)c1ccc([N+](=O)[O-])s1)c1nc2ccccc2[nH]1 | inconclusive: 10 µM [activator, partial curve, poor fit] |  |
| Cc1cc(SCc2ccc([N+](=O)[O-])cc2)nc(=O)[nH]1 | inconclusive: 11.2 µM [activator, partial curve, poor fit] |  |
| Cc1nc2c(cnn2CCO)c(=O)[nH]1 |  | inactive: 18.8% |
| CCn1cc(C(=O)NC(C)CCc2ccccc2)c(=O)c2cc(S(=O)(=O)N(C)C)ccc21 (centres undefined) | inconclusive: 4.47 µM [activator, single point] |  |
| O=C(O)C(c1ccccc1)N1C(=O)/C(=C\c2ccc(-c3ccccc3Cl)o2)SC1=S (centres undefined) | inconclusive: 2.82 µM [activator, partial curve, poor fit] |  |
| CC1Cc2ccccc2N1C(=S)NC(=O)c1ccc(Cl)cc1Cl (centres undefined) |  | inactive: -32.6% |
| C=CCNC(=O)/C(C#N)=C/c1c(C)nn(-c2ccccc2)c1Cl |  | inactive: 0% |
| Cc1cc(/C=N/NC(=O)c2ccccc2F)c(C)n1-c1ccccc1 | inconclusive: 5.01 µM [activator, single point] |  |
| C=C1CC2C(CCC3(C)C2CCC3(O)C(C)=O)C2(C)CCC(=O)C=C12 (centres undefined) |  | inactive: -30.7% |
| Cc1ccc(C(=O)Nc2ccc(N3CCN(C(=O)c4ccco4)CC3)cc2)cc1 |  | inactive: 0.617% |
| O=C(CCC(=O)N1CCCCC1)Nc1ccc(Cl)c(Cl)c1 | inconclusive: 28.2 µM [activator, single point] |  |
| Oc1ccc(C=NNc2ccccn2)c(O)c1 |  | inactive: -3.22% |

Laid out differently: 2 of the compounds above.
Structure (SMILES)	Potency	activation
Cn1c(SCC(=O)Nc2ccc(N3CCOCC3)cc2)nnc1C1CC1	inconclusive: 5.01 µM [activator, single point]	
COc1ccc(S(=O)(=O)Nc2cc3c4c(c2)CC(=O)N4CCC3)cc1OC		inactive: -0.0552%
